The values below are quoted from earlier work in patent publication US20020061509A1, “Screening assay for the identification of agents which alter expression of PTH-rP” (Osteo Screen, priority 1996, published 2002).

The conditions of the series: cited from earlier work.

SMILES strings stand for the structures.

On to `C[C@@H]1C[C@H]2[C@@H]3CCC4=CC(=O)C=C[C@]4(C)[C@@]3(F)[C@@H](O)C[C@]2(C)[C@@]1(O)C(=O)CO` [Dexamethasone, pregna-1,4-diene-3,20-dione,9-fluoro-11,17,21-trihydroxy-16-methyl-(11β,16α), reference compound], for which the solubility in water entry is reported as “practically insoluble”.
